Taken from: PubChem BioAssay AID720505 (Drosophila RNAi Screening Center, 2013)

Assay: 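Fly regulators or components of the CRAC channel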 (primary screen)
Cell system: Drosophila S2R+ cells
Reagent: long dsRNA against Drosophila genes
Challenge: thapsigargin (2 µM) in calcium-free buffer to empty internal stores, then 2 mM calcium added back
Measurement: 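Fluo-4 signal in 384-well plates read on a FLIPR after thapsigargin (2 µM, calcium-free) store depletion and 2 mM calcium add-back; unnormalised mean endpoint per well; screen run twice, selected wells retested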
Scale: calcium signal and retest calcium signal: higher = more calcium entry after store depletion
Active means: 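Knock-downs counted as hits when calcium entry dropped relative to STIM1 positive and Rho1 negative controls present on each plate; roughly 1500 genes called, with reductions of differing size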
Meaning of the calls: active = called as lowering calcium entry; inactive = not called
The deposit covers about 20,000 reagents; below is an unselected part of those that have a named target and a result. Of all reagents, about 2,100 (10%) are marked active. 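Raw plate signals without normalisation; calls rest on control-based scores that were not deposited; replicate 2 separates called from uncalled poorly.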 A plus sign joins genes that one reagent is predicted to hit. The record does not give: the amount of reagent, the time to read-out.

target gene,DRSC id,"calcium signal, replicate 1","calcium signal, replicate 2","retest calcium signal, replicate 1","retest calcium signal, replicate 2",outcome
CG4592,DRSC02761,97,140,,,inactive
Alp13 (Alkaline phosphatase 13),DRSC15781,80.6,89.8,,,inactive
CG17806,DRSC15276,139,238,,,inactive
exex (extra-extra),DRSC10972,91.1,77.8,,,inactive
ric8b + ric8a,DRSC18104,98.6,90.1,,,inactive
CG16956,DRSC02544,127,138,,,inactive
Ddx56 (DEAD-box helicase 56),DRSC20567,62.7,103,,,active
HipHop (HP1-HOAP-interacting protein),DRSC10734,101,81.4,,,inactive
CG8833,DRSC11050,76.2,83.6,,,inactive
nompB (no mechanoreceptor potential B),DRSC03701,86.7,126,,,inactive
nompB (no mechanoreceptor potential B),DRSC03731,76,91.3,136,131,active
SMC3 (Structural maintenance of chromosomes 3),DRSC20227,76.8,118,,,inactive
CG8389,DRSC07158,130,137,,,inactive
CG8389,DRSC22855,84.2,87.3,,,inactive
Aef1 (Adult enhancer factor 1),DRSC11605,78.2,144,,,inactive
CG2218,DRSC15428,113,138,,,inactive
Rheb (Ras homolog enriched in brain),DRSC12148,83.7,119,,,inactive
CG5039,DRSC15703,150,104,,,inactive
dmpd (dampened),DRSC06092,148,128,,,inactive
sotv + CG10731,DRSC05930,113,116,,,inactive
sotv + CG10731,DRSC05997,133,157,,,inactive
CG1227,DRSC12534,96.7,157,,,inactive
S-Lap7 (Sperm-Leucylaminopeptidase 7),DRSC06374,131,133,,,inactive
CG31373,DRSC16052,162,115,,,inactive
CG12935 + Nop10,DRSC07025,157,156,,,inactive
CAHbeta (Carbonic anhydrase beta),DRSC14449,98.4,131,,,inactive
CG15473,DRSC18056,227,141,,,inactive
Cht11 (Chitinase 11),DRSC18270,205,145,,,inactive
Sap30 (SIN3-associated polypeptide 30),DRSC19916,117,104,,,inactive
RhoGAP92B (Rho GTPase activating protein at 92B),DRSC14507,124,194,,,inactive
RhoGAP92B (Rho GTPase activating protein at 92B),DRSC15637,194,177,,,inactive
CG4950,DRSC10463,94.3,185,,,inactive
esn (espinas),DRSC05039,63,57.2,,,active
esn (espinas),DRSC06181,129,154,,,inactive
esn (espinas),DRSC07612,116,134,,,inactive
Usp47 (Ubiquitin specific protease 47),DRSC11313,78.9,101,,,inactive
Dus1 (Dihydrouridine synthase 1),DRSC00623,139,135,,,inactive
CG11828,DRSC14394,179,142,,,inactive
CG11828,DRSC22580,166,218,,,inactive
mRpL51 (mitochondrial ribosomal protein L51),DRSC02200,78.8,88.2,,,inactive
Cdc37 (Cell division cycle 37),DRSC08648,96.7,106,,,inactive
Tspo + rempA,DRSC00533,172,200,,,inactive
ND6 (retired record),DRSC21271,71.5,147,8445,158,active
CG42747,DRSC10209,84.7,84.7,,,inactive
CG42747,DRSC10210,90.1,58.4,,,inactive
CG13060,DRSC09943,87.9,115,,,inactive
CG34320 (retired record),DRSC17682,,,,,inactive
GlyRS (Glycyl-tRNA synthetase),DRSC10711,169,110,,,inactive
TwdlK (TweedleK),DRSC16045,59.3,84.1,,,active
CG8319,DRSC16407,144,101,,,inactive
SLC5A11 (Sodium/solute co-transporter-like 5A11),DRSC03088,127,241,,,inactive
Ppi1 (Protein phosphatase 1c interacting protein 1),DRSC15421,98.6,149,,,inactive
"Smyd4-2 (SET and MYND domain containing, class 4, member 2)",DRSC10126,116,100,,,inactive
Lcp65Aa,DRSC11209,126,99.3,,,inactive
ple (pale),DRSC11383,78.3,61.5,,,inactive
CG43068,DRSC05538,113,152,,,inactive
CG12824,DRSC06173,108,107,,,inactive
CG11951,DRSC14442,162,132,,,inactive
BNIP3,DRSC11761,114,167,,,inactive
Rlb1,DRSC16826,102,106,,,inactive
CG15263,DRSC01974,95.6,126,74.1,84.3,inactive
Tomosyn,DRSC19365,200,109,,,inactive
Tomosyn,DRSC19692,100,113,6159,87.5,inactive
Tomosyn,DRSC19782,140,132,,,inactive
Tomosyn,DRSC19842,76.3,88.5,7122,144,inactive
CG33108,DRSC21613,150,103,,,inactive
CG4836,DRSC15659,188,206,,,inactive
CG4836,DRSC22066,114,250,,,inactive
CG6216,DRSC10606,89.8,94.4,,,inactive
Mgat3,DRSC01305,291,77.6,,,inactive
Vha26 (Vacuolar H[+]-ATPase 26kD subunit),DRSC12371,95.5,121,,,inactive
"Adat1 (Adenosine deaminase, tRNA-specific 1)",DRSC03479,73.7,156,,,active
jeb (jelly belly),DRSC06305,95.2,140,,,inactive
jeb (jelly belly),DRSC06307,67.7,105,,,inactive
CG12520,DRSC09892,68.7,49.4,,,active
CG32447,DRSC11732,89.3,101,,,inactive
CG32447,DRSC11805,133,167,,,inactive
akirin,DRSC11000,103,146,,,inactive
Syn1 (Syntrophin-like 1),DRSC11803,117,168,,,inactive
Syn1 (Syntrophin-like 1),DRSC11804,89,139,,,inactive
GABA-B-R2 (metabotropic GABA-B receptor subtype 2),DRSC14134,132,150,91.8,105,inactive
ATP8B (ATPase 8B),DRSC14961,64,79,,,active
CG3618,DRSC11746,108,95.4,,,inactive

Laid out differently: entries from further up
| target gene | DRSC id | calcium signal, replicate 1 | calcium signal, replicate 2 | retest calcium signal, replicate 1 | retest calcium signal, replicate 2 | outcome |
| --- | --- | --- | --- | --- | --- | --- |
| exex (extra-extra) | DRSC10972 | 91.1 | 77.8 | – | – | inactive |
| ric8b + ric8a | DRSC18104 | 98.6 | 90.1 | – | – | inactive |
| CG16956 | DRSC02544 | 127 | 138 | – | – | inactive |
| Ddx56 (DEAD-box helicase 56) | DRSC20567 | 62.7 | 103 | – | – | active |
| HipHop (HP1-HOAP-interacting protein) | DRSC10734 | 101 | 81.4 | – | – | inactive |
| CG8833 | DRSC11050 | 76.2 | 83.6 | – | – | inactive |
| nompB (no mechanoreceptor potential B) | DRSC03701 | 86.7 | 126 | – | – | inactive |
| nompB (no mechanoreceptor potential B) | DRSC03731 | 76 | 91.3 | 136 | 131 | active |
| SMC3 (Structural maintenance of chromosomes 3) | DRSC20227 | 76.8 | 118 | – | – | inactive |
